Data: patent US20230277569A1, “Compositions and Methods for Treating, Ameliorating and/or Preventing Cancer and Kits for the Same” (priority 2022, published 2023)

Experiment: Phase I, cytochrome P450-mediated human liver microsome metabolism
Details: 0.5 μM; human liver microsomes

Cc1ncc2n1-c1ccc(Cl)cc1C(c1ccccc1F)=NC2 [Midazolam, reference compound]
half-life (t½): 17 min
